# Assay results as given in PubChem BioAssay (EPA / NIEHS).
# The chains behind the UniProt entries cited, without tags or fusion partners. Where a name states a change or a piece, a line headed by the entry shows the natural chain unless it says otherwise.
# UniProt P11473: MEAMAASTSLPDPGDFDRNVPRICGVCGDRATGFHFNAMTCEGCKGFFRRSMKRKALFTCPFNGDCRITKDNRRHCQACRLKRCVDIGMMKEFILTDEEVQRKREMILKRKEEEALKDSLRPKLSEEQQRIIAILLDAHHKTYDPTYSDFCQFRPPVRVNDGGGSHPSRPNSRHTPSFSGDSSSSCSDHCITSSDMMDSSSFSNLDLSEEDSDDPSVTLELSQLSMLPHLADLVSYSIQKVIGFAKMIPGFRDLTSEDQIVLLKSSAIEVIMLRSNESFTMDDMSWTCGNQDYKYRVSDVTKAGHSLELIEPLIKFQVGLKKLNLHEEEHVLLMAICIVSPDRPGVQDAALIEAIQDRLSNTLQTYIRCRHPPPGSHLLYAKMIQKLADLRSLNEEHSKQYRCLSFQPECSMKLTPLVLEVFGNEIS
# Where “and” joins values, the source holds several entries; their conditions need not be identical. Equal values may be shown once. For part of these data: Most of the hits are listed elsewhere, so they are rarer here than in the full data. Inconclusive results are not listed. The entries are a selection whose mix differs from that of the whole data set. Calls of active or inactive are those of the source. How the source made its calls, unless noted: active means hit-call score of the fitted dose curve at least 0.9, where 1 is the maximum; inactive means score below 0.9.
# Key:
# [1] = target: human Vitamin D Receptor (VDR), VDR (gene 7421) (UniProt P11473); experiment: ATG_VDR_TRANS: Attagene TRANS-FACTORIAL HepG2 Assay for human Vitamin D Receptor (VDR) (AID 2283022; active means hit-call score of the fitted dose curve at least 0.9, where 1 is the maximum)
# Outline: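 HepG2 cells were transiently transfected with GAL4-UAS reporter units and a chimeric VDR-Gal4 construct, then dosed for 24 hours. Reporter mRNA was quantified by RT-PCR, fluorescent labeling, HpaI digestion and capillary electrophoresis; gain of signal analysed vs DMSO.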
# [2] = BSK_3C_SRB: Viability Assessment in the BioMAP Diversity Plus: 3C Assay (AID 2283023); conditions: primary human endothelial cells (HUVEC);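 further: fitted both ways against DMSO so a hit may be signal rise or drop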
# Outline: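 Human umbilical vein endothelial cells in the 3C system, treated 24 h. Total protein measured by 0.1% sulforhodamine B staining after 10% TCA fixation, read at 560 nm; bidirectional fit versus DMSO.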
# [3] = ACEA_AR_agonist_AUC_viability: ACEA Biosciences xCELLigence Real-Time Cell Analysis on Androgen Receptor Agonism for Viability (AID 2283775; active means hit-call score of the fitted dose curve at least 0.9, where 1 is the maximum)
# Outline: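 22Rv1 cells; impedance growth kinetics; 8-pt 1:4 dilutions from 100 uM top final, ≤0.5% DMSO; n = 2; 80 h read; AUC viability, loss-of-signal vs DMSO.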
# [4] = ACEA_AR_antagonist_AUC_viability: ACEA Biosciences xCELLigence Real-Time Cell Analysis on Androgen Receptor Antagonism for Viability (AID 2283776; active means hit-call score of the fitted dose curve at least 0.9, where 1 is the maximum;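 further: 22Rv1 human prostate cancer cells growing on impedance electrode plates; area under impedance growth curve at 80 h after dosing as viability; hits lower the growth signal relative to DMSO meaning cytotoxicity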)
# Outline: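 Real-time electrical impedance tracks 22Rv1 proliferation after continuous compound exposure (top 100 uM final, 1:4 steps, 8 concentrations). The 80 h area-under-curve serves as the cytotoxicity readout relative to DMSO.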
# [5] = CCTE_Deisenroth_AIME_384WELL_CTox_Inactive: Cytotoxicity Assessment (CTOX) in CCTE's 384-well Estrogen Receptor Transactivation Assay without AIME metabolic competence (metabolism negative), Deisenroth Lab (AID 2284039; active means hit-call score of the fitted dose curve at least 0.9, where 1 is the maximum;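 further: cell viability via live-cell protease substrate cleaved to fluorescent probe; cells exposed 24 h to medium preincubated 2 h with alginate-water beads without S9; loss of fluorescence signal means loss of viability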)
# Outline: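 VM7Luc4E2 human breast cells received conditioned medium from a 2 h incubation of chemical with alginate-water microspheres (no S9), then were exposed 24 h. Viability was read as protease-substrate cleavage to a fluorescent probe; loss of signal was fitted bidirectionally over 0.002–200 uM.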
# [6] = read-out: Human Leukocyte Antigen - DR isotype (HLADR), HLA-DRA (gene 3122); experiment: BSK_3C_HLADR: BioMAP Diversity Plus: 3C Assay for Human Leukocyte Antigen - DR isotype (HLADR) Biomarker Activity (AID 2283019); conditions: actives raise or lower the signal; primary human endothelial cells (HUVEC)
# Outline: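 HUVEC monoculture, HLA-DR measured by ELISA 24 h after chemical dosing. Fitted bidirectionally against DMSO baseline; parallel SRB staining assessed cytotoxicity, with 3C proliferation read by SRB at 48 h.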
# [7] = read-out: TIMP metallopeptidase inhibitor 1 (TIMP1), TIMP1 (gene 7076); experiment: BSK_hDFCGF_TIMP1: BioMAP Diversity Plus: hDFCGF Assay for TIMP metallopeptidase inhibitor 1 (TIMP1) Biomarker Activity (AID 2283062); conditions: actives raise or lower the signal; primary human foreskin fibroblasts
# Outline: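 Human foreskin fibroblast primary cultures dosed for 24 h; secreted/surface TIMP-1 quantified by ELISA. Bidirectional curve fitting against DMSO baseline; cytotoxicity tracked in parallel cultures by SRB total-protein staining.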
# [8] = read-out: solute carrier (SLC22A1), SLC22A1 (gene 6580); experiment: LTEA_HepaRG_SLC22A1: Life Technologies and Expression Analysis (LTEA) Assay for solute carrier (SLC22A1) using HepaRG (AID 2283524); conditions: actives raise or lower the signal; mRNA level, 48 h;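 further: TaqMan qRT-PCR normalized to ACTB GAPDH and POLR2A housekeeping genes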
# Outline: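 Transcript level of SLC22A1 quantified by qRT-PCR (normalized to three housekeeping genes) after 48 h chemical exposure of HepaRG cells, eight concentrations up to 100 µM, half-log steps, 0.5% DMSO vehicle. Gain or loss relative to DMSO fitted bidirectionally.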
# [9] = TOX21_p53_BLA_p3_viability: Viability Assessment in the Tox21 HCT-116 p53 Agonism Beta-lactamase Assay, Phase 3 (AID 2283593; active means hit-call score of the fitted dose curve at least 0.9, where 1 is the maximum;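 further: cells exposed to compound for 16 h before reading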)
# Outline: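 Cellular ATP was quantified by CellTiter-Glo luminescence, read after 30 min at room temperature. Beforehand, HCT116 cells (4000/well) received compound 5 h post-seeding, 217-fold diluted from DMSO, then incubated 16 h at 37C.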
# [10] = read-out: Interleukin-8 (IL8), CXCL8 (gene 3576); experiment: BSK_3C_IL8: BioMAP Diversity Plus: 3C Assay for Interleukin-8 (IL8) Biomarker Activity (AID 2283020); conditions: actives raise or lower the signal; primary human endothelial cells (HUVEC)
# Outline: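 Endothelial primary cells of human umbilical vein origin are dosed with chemical; after 24 h the IL-8 biomarker is measured by ELISA, and concentration–response is fitted in both directions versus DMSO.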
# [11] = read-out: Monokine induced gamma interferon (MIG), CXCL9 (gene 4283); experiment: BSK_3C_MIG: BioMAP Diversity Plus: 3C Assay for Monokine induced gamma interferon (MIG) Biomarker Activity (AID 2283021); conditions: actives raise or lower the signal; primary human endothelial cells (HUVEC);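 on AC50: MIG protein level measured by immunoassay in the treated endothelial cultures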
# Outline: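 Endothelial primary cells (human umbilical vein) are dosed with test chemical in the 3C system. MIG levels are measured by ELISA at 24 h and fitted in both directions relative to DMSO.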
# [12] = BSK_SAg_Proliferation: Cell Proliferation Assessment in the BioMAP Diversity Plus: SAg Assay (AID 2283095); conditions: primary human HUVEC with PBMC;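 further: relative cell number as total protein by SRB absorbance in sub-confluent culture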
# Outline: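 Absorbance of sulforhodamine B at 560 nm reports total protein in a human vascular endothelial/PBMC co-culture after 96 h chemical exposure. Gain or loss of signal is fitted in both directions against DMSO.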
# [13] = read-out: Cytochrome P450 (CYP1A2), CYP1A2 (gene 1544); experiment: LTEA_HepaRG_CYP1A2: Life Technologies and Expression Analysis (LTEA) Assay for Cytochrome P450 (CYP1A2) using HepaRG (AID 2283479); conditions: actives raise or lower the signal; mRNA level, 48 h;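 further: TaqMan qRT-PCR transcript level normalized to ACTB GAPDH and POLR2A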
# Outline: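 Differentiated human HepaRG cells in serum-free induction medium exposed 48 hours in duplicate to 8 half-log concentrations from 100 uM, 0.5% DMSO. CYP1A2 mRNA quantified by qRT-PCR, normalized to ACTB, GAPDH and POLR2A; bidirectional fitting versus DMSO.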
# [14] = read-out: Vascular cell adhesion molecule 1 (VCAM1), VCAM1 (gene 7412); experiment: BSK_4H_VCAM1: BioMAP Diversity Plus: 4H Assay for Vascular cell adhesion molecule 1 (VCAM1) Biomarker Activity (AID 2283033); conditions: actives raise or lower the signal; primary human endothelial cells (HUVEC)
# Outline: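 Chemicals are added to primary human umbilical vein endothelial cells. After 24 h, VCAM-1 levels are measured by ELISA. Values come from bidirectional fitting referenced to DMSO.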
# [15] = read-out: Interferon-gamma inducible Protein 10 (IP10), CXCL10 (gene 3627); experiment: BSK_BE3C_IP10: BioMAP Diversity Plus: BE3C Assay for Interferon-gamma inducible Protein 10 (IP10) Biomarker Activity (AID 2283034); conditions: actives raise or lower the signal; primary human bronchial epithelial cells
# Outline: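 IP-10 quantified by ELISA serves as the endpoint. Cells: primary human bronchial epithelium, read 24 h after compound addition. Activity is derived by bidirectional fitting with DMSO as negative control.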
# [16] = read-out: Plasminogen activator inhibitor-1 (PAI1), SERPINE1 (gene 5054); experiment: BSK_BE3C_PAI1: BioMAP Diversity Plus: BE3C Assay for Plasminogen activator inhibitor-1 (PAI1) Biomarker Activity (AID 2283037); conditions: actives raise or lower the signal; primary human bronchial epithelial cells
# Outline: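 Values derive from bidirectional fitting against DMSO baseline of PAI-1 levels, measured by ELISA in human bronchial epithelial cells 24 h after compound addition.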
# [17] = BSK_CASM3C_SRB: Viability Assessment in the BioMAP Diversity Plus: CASM3C Assay (AID 2283050); conditions: primary human coronary artery smooth muscle cells
# [18] = read-out: Monokine induced gamma interferon (MIG), CXCL9 (gene 4283); experiment: BSK_hDFCGF_MIG: BioMAP Diversity Plus: hDFCGF Assay for Monokine induced gamma interferon (MIG) Biomarker Activity (AID 2283063); conditions: actives raise or lower the signal; primary human foreskin fibroblasts
# Outline: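 MIG/CXCL9 measured by ELISA 24 h after dosing primary human skin fibroblasts. Activity fitted in both directions against DMSO controls. Cytotoxicity was checked in parallel cultures by SRB staining read at 560 nm.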
# [19] = read-out: CD40, CD40 (gene 958); experiment: BSK_LPS_CD40: BioMAP Diversity Plus: LPS Assay for CD40 Biomarker Activity (AID 2283076); conditions: actives raise or lower the signal; primary human HUVEC with PBMC
# Outline: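 HUVEC plus PBMC co-culture stimulated with LPS; CD40 quantified by ELISA 24 h after compound dosing. Fitting was bidirectional relative to DMSO. SRB staining of parallel cultures flagged overt cytotoxicity.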
# [20] = read-out: Macrophage colony-stimulating factor (MCSF), CSF1 (gene 1435); experiment: BSK_LPS_MCSF: BioMAP Diversity Plus: LPS Assay for Macrophage colony-stimulating factor (MCSF) Biomarker Activity (AID 2283083); conditions: actives raise or lower the signal; primary human HUVEC with PBMC
# Outline: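 HUVEC–PBMC co-culture, M-CSF measured by ELISA 24 h after chemical dosing. Fitted in both directions relative to DMSO as negative control; overt cytotoxicity assessed by SRB total-protein staining in parallel cultures.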
smiles,measurement,setting,value
NCCNCCN,outcome,[1],inactive
same,outcome,[2],inactive
same,outcome,[3],inactive
same,outcome,[4],inactive
same,outcome,[5],inactive
NC(=O)Cn1c(=O)cc(CCN2CCN(c3nccc4sccc34)CC2)c2ccc(F)cc21,outcome,[2],inactive
Cc1c(C)c2c(c(C)c1O)CCC(C)(COc1ccc(CC3SC(=O)NC3=O)cc1)O2 (centres undefined),AC50,[6],active: 29 µM
same,AC50,[7],active: 14 µM
same,AC50,[8],active: 24.4 µM
same,AC50,[9],active: 37.2 µM
OCCOCCOCCO,outcome,[10],inactive
c1ccc(CCc2ccccc2)cc1,outcome,[11],inactive
same,AC50,[12],active: 34.4 µM
CC(C)c1ccc2c(C(C)C)cc(C(C)C)c(S(=O)(=O)O)c2c1,outcome,[1],inactive
Cc1ccc2oc(CN(Cc3ccccc3)C(=O)Nc3c(F)cc(F)cc3F)c(-c3ccc(Cl)cc3)c2c1,AC50,[6],active: 25.5 µM
same,AC50,[13],active: 16.6 µM
Oc1c(Cl)cc(Cl)cc1Sc1cc(Cl)cc(Cl)c1O,AC50,[11],active: 18.2 µM and active: 34.5 µM
same,AC50,[14],active: 11.9 µM
same,AC50,[15],active: 6.16 µM
same,AC50,[16],active: 4.74 µM
same,AC50,[17],active: 18.7 µM
same,AC50,[18],active: 2.07 µM
same,AC50,[19],active: 16 µM
same,AC50,[20],active: 20 µM
